Data from patent publication US20100322930A1.

Amino acid sequences for entries named in this document (tags omitted). A change or cut given only in a name is not applied to a line headed by its entry.
UniProt P17948: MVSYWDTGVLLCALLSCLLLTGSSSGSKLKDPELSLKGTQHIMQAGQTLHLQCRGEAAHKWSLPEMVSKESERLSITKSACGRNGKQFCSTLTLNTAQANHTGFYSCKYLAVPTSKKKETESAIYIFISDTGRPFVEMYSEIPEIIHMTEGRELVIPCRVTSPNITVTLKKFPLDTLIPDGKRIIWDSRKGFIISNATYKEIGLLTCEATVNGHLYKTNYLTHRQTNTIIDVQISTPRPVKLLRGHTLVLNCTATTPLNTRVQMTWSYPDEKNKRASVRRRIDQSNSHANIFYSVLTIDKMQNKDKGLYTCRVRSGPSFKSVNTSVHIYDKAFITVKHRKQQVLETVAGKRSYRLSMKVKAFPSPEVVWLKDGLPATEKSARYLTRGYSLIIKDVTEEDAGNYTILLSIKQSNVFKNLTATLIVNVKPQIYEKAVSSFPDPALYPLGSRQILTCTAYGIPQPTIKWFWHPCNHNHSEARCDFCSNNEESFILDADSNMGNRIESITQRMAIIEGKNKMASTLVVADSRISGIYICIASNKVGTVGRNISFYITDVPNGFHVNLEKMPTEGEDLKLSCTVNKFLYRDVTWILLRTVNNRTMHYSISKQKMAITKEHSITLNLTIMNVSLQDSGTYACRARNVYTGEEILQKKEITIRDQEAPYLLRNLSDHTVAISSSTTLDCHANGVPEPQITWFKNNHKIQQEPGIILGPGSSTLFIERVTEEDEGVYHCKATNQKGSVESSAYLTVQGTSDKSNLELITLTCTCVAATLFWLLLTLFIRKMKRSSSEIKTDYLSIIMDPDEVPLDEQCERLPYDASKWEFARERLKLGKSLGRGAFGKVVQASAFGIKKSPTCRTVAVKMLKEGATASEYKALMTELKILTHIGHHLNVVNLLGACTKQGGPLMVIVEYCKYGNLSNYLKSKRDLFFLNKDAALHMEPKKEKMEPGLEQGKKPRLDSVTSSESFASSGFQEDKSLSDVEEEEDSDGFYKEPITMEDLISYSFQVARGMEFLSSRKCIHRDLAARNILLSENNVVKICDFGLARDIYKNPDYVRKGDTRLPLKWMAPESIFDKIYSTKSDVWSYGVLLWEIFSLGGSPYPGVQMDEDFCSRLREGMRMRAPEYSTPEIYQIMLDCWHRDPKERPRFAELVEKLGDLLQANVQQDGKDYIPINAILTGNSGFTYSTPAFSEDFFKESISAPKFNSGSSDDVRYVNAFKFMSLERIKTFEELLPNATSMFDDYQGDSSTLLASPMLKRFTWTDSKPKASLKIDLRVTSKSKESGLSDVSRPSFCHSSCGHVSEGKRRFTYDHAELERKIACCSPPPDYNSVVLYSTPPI

Molecular target: hVEGFR (human) (UniProt P17948)
Test: ELISA

binding: binds
B1: VEGFR-binding Fn3-RSA (CD33 signal sequence-VEGFR-binding Fn3-RSA-His tag, pRS5a) (designed binder)
chain: GEVVAATPTSLLISWRHPHFPTRYYRITYGETGGNSPVQEFTVPLQPPTATISGLKPGVDYTITVYAVTDGRNGRLLSIPISINYRTEAHKSEIAHRFKDLGEQHFKGLVLIAFSQYLQKCPYEEHIKLVQEVTDFAKTCVADENAENCDKSIHTLFGDKLCAIPKLRDNYGELADCCAKQEPERNECFLQHKDDNPNLPPFQRPEAEAMCTSFQENPTSFLGHYLHEVARRHPYFYAPELLYYAEKYNEVLTQCCTESDKAACLTPKLDAVKEKALVAAVRQRMKCSSMQRFGERAFKAWAVARMSQRFPNAEFAEITKLATDVTKINKECCHGDLLECADDRAELAKYMCENQATISSKLQACCDKPVLQKSQCLAEIEHDNIPADLPSIAADFVEDKEVCKNYAEAKDVFLGTFLYEYSRRHPDYSVSLLLRLAKKYEATLEKCCAEGDPPACYGTVLAEFQPLVEEPKNLVKTNCELYEKLGEYGFQNAVLVRYTQKAPQVSTPTLVEAARNLGRVGTKCCTLPEAQRLPCVEDYLSAILNRLCVLHEKTPVSEKVTKCCSGSLVERRPCFSALTVDETYVPKEFKAETFTFHSDICTLPDKEKQIKKQTALAELVKHKPKATEDQLKTVMGDFAQFVDKCCKAADKDNCFATEGPNLVARSKEALAHHHHHH

Results are given in words; binding and its absence hold for the method and conditions named. A result given as binding can be weak or reduced; the word gives no strength. Where a sequence is shown, tags or fusion partners need not be part of it.
